Assay results published in PMC7814351.

Protein sequences, listed by entry. Tags and fused reporters are not part of them. Lines headed by an entry give the natural chain unless they say otherwise; changes in a name come on top.
UniProt Q9HB90: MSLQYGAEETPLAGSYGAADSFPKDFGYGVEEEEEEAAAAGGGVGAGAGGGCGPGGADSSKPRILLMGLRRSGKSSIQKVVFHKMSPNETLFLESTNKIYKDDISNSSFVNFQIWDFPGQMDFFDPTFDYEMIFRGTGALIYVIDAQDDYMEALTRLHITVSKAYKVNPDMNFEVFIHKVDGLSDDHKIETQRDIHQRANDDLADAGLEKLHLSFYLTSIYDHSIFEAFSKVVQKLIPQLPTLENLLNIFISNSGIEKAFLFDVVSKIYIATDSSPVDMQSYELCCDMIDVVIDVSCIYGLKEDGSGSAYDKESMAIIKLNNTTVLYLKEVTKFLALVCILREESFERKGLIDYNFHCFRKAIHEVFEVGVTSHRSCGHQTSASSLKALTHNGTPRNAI
UniProt Q68DK2: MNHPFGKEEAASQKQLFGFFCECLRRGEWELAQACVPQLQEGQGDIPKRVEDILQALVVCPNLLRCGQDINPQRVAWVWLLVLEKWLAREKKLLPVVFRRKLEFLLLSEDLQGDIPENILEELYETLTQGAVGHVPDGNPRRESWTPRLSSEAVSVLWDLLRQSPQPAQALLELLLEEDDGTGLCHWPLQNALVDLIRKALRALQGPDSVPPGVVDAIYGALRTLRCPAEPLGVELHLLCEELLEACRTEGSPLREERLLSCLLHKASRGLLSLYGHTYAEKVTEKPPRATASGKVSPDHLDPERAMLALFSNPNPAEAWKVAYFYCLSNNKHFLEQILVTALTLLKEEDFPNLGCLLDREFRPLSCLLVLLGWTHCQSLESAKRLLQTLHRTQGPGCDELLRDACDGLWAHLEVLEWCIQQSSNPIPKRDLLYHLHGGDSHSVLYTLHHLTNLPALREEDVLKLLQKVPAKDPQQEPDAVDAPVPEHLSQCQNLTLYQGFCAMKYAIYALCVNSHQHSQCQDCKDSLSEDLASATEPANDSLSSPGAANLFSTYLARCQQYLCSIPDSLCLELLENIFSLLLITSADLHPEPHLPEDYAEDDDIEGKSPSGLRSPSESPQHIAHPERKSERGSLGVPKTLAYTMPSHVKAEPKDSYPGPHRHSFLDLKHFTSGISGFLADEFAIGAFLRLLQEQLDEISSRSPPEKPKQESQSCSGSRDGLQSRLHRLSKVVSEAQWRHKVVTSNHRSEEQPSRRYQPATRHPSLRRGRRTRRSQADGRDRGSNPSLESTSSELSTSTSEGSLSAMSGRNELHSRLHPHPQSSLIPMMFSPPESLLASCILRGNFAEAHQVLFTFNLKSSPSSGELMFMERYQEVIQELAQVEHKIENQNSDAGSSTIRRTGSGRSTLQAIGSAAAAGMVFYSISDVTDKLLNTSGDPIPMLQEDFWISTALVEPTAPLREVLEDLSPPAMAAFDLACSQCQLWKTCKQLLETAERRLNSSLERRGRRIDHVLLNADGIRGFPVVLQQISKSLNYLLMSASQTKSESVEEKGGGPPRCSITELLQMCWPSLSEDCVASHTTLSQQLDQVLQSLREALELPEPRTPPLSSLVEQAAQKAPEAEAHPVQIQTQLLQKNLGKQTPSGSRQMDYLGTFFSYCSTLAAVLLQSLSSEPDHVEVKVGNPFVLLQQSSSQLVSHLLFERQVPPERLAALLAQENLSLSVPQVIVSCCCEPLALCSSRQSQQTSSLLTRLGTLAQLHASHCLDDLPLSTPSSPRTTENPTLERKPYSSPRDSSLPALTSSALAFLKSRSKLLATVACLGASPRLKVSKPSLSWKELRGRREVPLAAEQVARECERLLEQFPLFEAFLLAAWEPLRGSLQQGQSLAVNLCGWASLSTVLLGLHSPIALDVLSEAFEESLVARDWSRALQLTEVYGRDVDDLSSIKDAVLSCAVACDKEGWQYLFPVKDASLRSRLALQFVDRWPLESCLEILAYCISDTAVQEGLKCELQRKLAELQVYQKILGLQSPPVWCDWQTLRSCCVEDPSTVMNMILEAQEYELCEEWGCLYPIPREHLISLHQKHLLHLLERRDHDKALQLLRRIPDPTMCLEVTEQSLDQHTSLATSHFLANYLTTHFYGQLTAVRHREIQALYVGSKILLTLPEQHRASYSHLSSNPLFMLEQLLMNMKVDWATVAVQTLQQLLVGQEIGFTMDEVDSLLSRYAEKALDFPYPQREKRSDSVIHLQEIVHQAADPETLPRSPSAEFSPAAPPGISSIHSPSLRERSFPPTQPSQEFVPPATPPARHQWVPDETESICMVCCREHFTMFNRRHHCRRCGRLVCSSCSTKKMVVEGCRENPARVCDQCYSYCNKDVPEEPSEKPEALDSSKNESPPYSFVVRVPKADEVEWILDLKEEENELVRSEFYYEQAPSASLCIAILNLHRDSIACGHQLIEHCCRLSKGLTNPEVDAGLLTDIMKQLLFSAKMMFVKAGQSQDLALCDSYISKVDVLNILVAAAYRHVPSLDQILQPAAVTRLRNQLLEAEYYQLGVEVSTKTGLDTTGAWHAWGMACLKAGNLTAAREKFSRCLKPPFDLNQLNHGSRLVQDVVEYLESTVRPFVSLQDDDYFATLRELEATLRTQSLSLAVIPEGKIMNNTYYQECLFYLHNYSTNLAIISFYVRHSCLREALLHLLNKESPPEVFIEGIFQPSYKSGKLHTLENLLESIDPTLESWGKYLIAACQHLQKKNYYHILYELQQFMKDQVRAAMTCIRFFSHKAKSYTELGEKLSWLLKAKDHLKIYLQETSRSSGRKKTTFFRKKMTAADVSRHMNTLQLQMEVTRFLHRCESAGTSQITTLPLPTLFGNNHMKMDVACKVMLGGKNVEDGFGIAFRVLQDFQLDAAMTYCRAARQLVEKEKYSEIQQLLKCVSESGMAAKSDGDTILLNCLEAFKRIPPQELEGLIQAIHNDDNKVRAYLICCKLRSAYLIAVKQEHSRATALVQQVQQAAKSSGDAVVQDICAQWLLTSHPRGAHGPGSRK

How the values were obtained:
Assay in all cases: proximity labelling; BioID: BirA*-FLAG-RagC baits in stable HEK293 Flp-In T-REx cells, tetracycline (1 µg/ml) and biotin (50 µM) for 24 h; biotinylated proteins captured on streptavidin-sepharose and identified by mass spectrometry; SAINT, FDR ≤1%
[1] = target: C-terminally BirA*-FLAG-tagged RagC, GTP-locked (Q120L) (human) (UniProt Q9HB90)
[2] = target: C-terminally BirA*-FLAG-tagged RagC, wild type (human) (UniProt Q9HB90)
[3] = target: C-terminally BirA*-FLAG-tagged RagC, GDP-locked (S75N) (human) (UniProt Q9HB90)

binding [1]: no binding | binding [2]: no binding | binding [3]: binds
Substance: SPG15 (spastizin), BioID prey (from UniProt Q68DK2 1-2539)

These are yes or no findings as the source states them, for the method shown. In cells and extracts the contact can be indirect. A yes stands for co-enrichment or nearness to the bait. Other partners may have been found. For part of these data: No binding means not detected with the bait.
